{"sequences": {"note": "Protein sequences, listed by entry. Tags and fused reporters are not part of them. Lines headed by an entry give the natural chain unless they say otherwise; changes in a name come on top. Residues count along the entry.", "UniProt P70452, residues 1-274": "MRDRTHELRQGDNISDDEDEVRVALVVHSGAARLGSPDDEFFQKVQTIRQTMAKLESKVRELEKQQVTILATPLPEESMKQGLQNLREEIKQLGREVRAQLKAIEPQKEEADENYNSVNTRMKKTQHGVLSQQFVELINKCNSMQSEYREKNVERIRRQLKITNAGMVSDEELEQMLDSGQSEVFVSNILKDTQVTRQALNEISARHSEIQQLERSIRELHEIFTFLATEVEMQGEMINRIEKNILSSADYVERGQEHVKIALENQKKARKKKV", "UniProt Q9WV89": "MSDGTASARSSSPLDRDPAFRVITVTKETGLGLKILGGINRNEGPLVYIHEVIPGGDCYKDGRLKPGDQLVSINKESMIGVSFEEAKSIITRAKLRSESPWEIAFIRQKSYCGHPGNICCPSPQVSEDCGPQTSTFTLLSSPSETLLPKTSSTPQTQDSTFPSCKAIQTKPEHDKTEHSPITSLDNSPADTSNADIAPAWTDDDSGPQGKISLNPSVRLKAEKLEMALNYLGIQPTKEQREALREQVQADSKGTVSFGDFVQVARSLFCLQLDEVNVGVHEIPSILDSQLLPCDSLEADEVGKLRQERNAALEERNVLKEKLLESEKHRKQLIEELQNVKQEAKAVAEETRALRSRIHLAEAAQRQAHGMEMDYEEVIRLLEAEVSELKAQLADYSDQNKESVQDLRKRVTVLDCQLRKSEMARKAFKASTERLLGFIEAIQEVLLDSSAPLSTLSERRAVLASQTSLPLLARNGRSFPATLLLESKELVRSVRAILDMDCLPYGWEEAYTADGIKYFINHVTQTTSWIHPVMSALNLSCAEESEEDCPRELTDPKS"}, "source": "paper PMC3411842", "key": {"[1]": {"target": "GST-tagged syntaxin 4 (cytoplasmic portion) (UniProt P70452)", "assay": "pull-down; purified GST-syntaxin 4 on glutathione sepharose beads mixed with RIPA lysate of CHO cells expressing Flag-Synip WT or ΔWW, cells serum starved 4 h, with or without 100 nM insulin for 15 min; 2 h at 4°C; anti-Flag immunoblot; only the target purified"}, "[2]": {"target": "GST-tagged syntaxin 4 (cytoplasmic portion) (UniProt P70452)", "assay": "pull-down; purified GST-syntaxin 4 on glutathione sepharose beads mixed with RIPA lysate of 3T3L1 adipocytes expressing Flag-Synip WT or ΔWW, basal state (serum starved 4 h); 2 h at 4°C; anti-Flag immunoblot, band densities quantified (n = 3); only the target purified"}}, "note": "Results are given in words; binding and its absence hold for the method and conditions named. Binding seen in cells or lysates may run through a third protein. Binding can be weak; no strength is given.", "data": [{"substance": "Flag-tagged Synip ΔWW (Synip with the WW domain deleted) (from UniProt Q9WV89)", "values": [{"measurement": "binding", "setting": "[1]", "result": "binds"}, {"measurement": "binding", "setting": "[2]", "result": "binds"}]}]}
